Reference: PubChem BioAssay AID1259405 (NCATS, 2018)
Test: 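Silenced genes that increase secreted GFP made by CHO cells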 (primary screen). System: Chinese hamster CHO-K1 ovary cells with stable secreted eGFP expression. Reagents: single siRNA against mouse genes, 0.8 pmol siRNA per well (2 µl of 400 nM stock). Timing: 3 days. Detection: 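Per-well intracellular GFP measured by laser scanning cytometry, plus viability from ATP luminescence, each relative to plate median of non-targeting control wells, in %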. Reading the numbers: GFP, % of control: higher = more GFP per well, higher productivity; viability (ATP), % of control: higher = more viable cells (more ATP). Call rule: 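a knock-down is called active if GFP reaches 120% or more of non-targeting control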.
This is an unselected part of about 50,000 reagents tested. About 4,000 of them (8%) were called active. 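Mouse siRNA library applied to hamster cells; one well for each siRNA.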 Entries without a mark were called inactive. The numbers tell different reagents against one gene apart. Reagent sequences are not shown.

Or1e19 (GeneID 259026) #1 gave GFP, % of control 117; viability (ATP), % of control 83.3.
Or1e19 (GeneID 259026) #2 scored GFP, % of control 93.1; viability (ATP), % of control 83.5.
After knock-down of Or1e19 (GeneID 259026) #3 the results were GFP, % of control 104; viability (ATP), % of control 103.
With knock-down of Rnd2 (GeneID 11858) #1, the record shows GFP, % of control 149 (active); viability (ATP), % of control 136.
After knock-down of Rnd2 (GeneID 11858) #2 the results were GFP, % of control 122 (active); viability (ATP), % of control 127.
With knock-down of Rnd2 (GeneID 11858) #3, the record shows GFP, % of control 77.2; viability (ATP), % of control 65.5.
Myo1c (GeneID 17913) #1 showed GFP, % of control 70.8; viability (ATP), % of control 105.
Silencing of Myo1c (GeneID 17913) #2 came out at: GFP, % of control 24.7; viability (ATP), % of control 20.3.
With knock-down of Polr2k (GeneID 17749) #1, the screen gave GFP, % of control 34.5; viability (ATP), % of control 38.4.
Depletion of Polr2k (GeneID 17749) #2 resulted in: GFP, % of control 77.3; viability (ATP), % of control 100.
Lyplal1 (GeneID 226791) #1 scored GFP, % of control 75.3; viability (ATP), % of control 89.3.
With knock-down of Lyplal1 (GeneID 226791) #2, the screen gave GFP, % of control 62.8; viability (ATP), % of control 86.1.
Knock-down of Lyplal1 (GeneID 226791) #3 came out at: GFP, % of control 69; viability (ATP), % of control 88.5.
After knock-down of Itgb1bp2 (GeneID 26549) #1, the screen gave GFP, % of control 58.7; viability (ATP), % of control 63.1.
After knock-down of Itgb1bp2 (GeneID 26549) #2 the results were GFP, % of control 89; viability (ATP), % of control 62.5.
With knock-down of Itgb1bp2 (GeneID 26549) #3, the record shows GFP, % of control 102; viability (ATP), % of control 99.4.
Entpd3 (GeneID 215446) #1 gave GFP, % of control 59.7; viability (ATP), % of control 51.9.
For Entpd3 (GeneID 215446) #2 the deposit lists GFP, % of control 87.2; viability (ATP), % of control 103.
Entpd3 (GeneID 215446) #3 gave GFP, % of control 109; viability (ATP), % of control 60.
For Sh3bgrl2 (GeneID 212531) #1 the deposit lists GFP, % of control 40.3; viability (ATP), % of control 84.5.
Sh3bgrl2 (GeneID 212531) #2 gave GFP, % of control 11.7; viability (ATP), % of control 15.3.
Sh3bgrl2 (GeneID 212531) #3 showed GFP, % of control 77.4; viability (ATP), % of control 85.4.
With knock-down of Prr27 (GeneID 73779) #1, the record shows GFP, % of control 71.5; viability (ATP), % of control 60.4.
Silencing of Prr27 (GeneID 73779) #2 resulted in: GFP, % of control 47.2; viability (ATP), % of control 51.8.
Prr27 (GeneID 73779) #3 scored GFP, % of control 104; viability (ATP), % of control 81.6.
Gm839 (GeneID 330379) #1 gave GFP, % of control 106; viability (ATP), % of control 86.2.
Against Gm839 (GeneID 330379) #2, the values are GFP, % of control 73.3; viability (ATP), % of control 66.7.
Silencing of Gm839 (GeneID 330379) #3 resulted in: GFP, % of control 96.5; viability (ATP), % of control 72.1.
Vapa (GeneID 30960) #1 gave GFP, % of control 163 (active); viability (ATP), % of control 132.
After knock-down of Vapa (GeneID 30960) #2 the results were GFP, % of control 61; viability (ATP), % of control 76.3.
Depletion of Ccr10 (GeneID 12777) #1 gave: GFP, % of control 74.7; viability (ATP), % of control 62.9.
Ccr10 (GeneID 12777) #2 showed GFP, % of control 84.4; viability (ATP), % of control 69.9.
Ccr10 (GeneID 12777) #3 gave GFP, % of control 116; viability (ATP), % of control 73.8.
Knock-down of Hdac10 (GeneID 170787) #1 gave: GFP, % of control 68.7; viability (ATP), % of control 74.3.
Depletion of Hdac10 (GeneID 170787) #2 came out at: GFP, % of control 113; viability (ATP), % of control 68.6.

4 of these entries, reformatted:
{"Target gene":"Vapa (GeneID 30960)","reagent no.":1,"GFP, % of control":"163 (active)","viability (ATP), % of control":132}
{"Target gene":"Vapa (GeneID 30960)","reagent no.":2,"GFP, % of control":61,"viability (ATP), % of control":76.3}
{"Target gene":"Ccr10 (GeneID 12777)","reagent no.":1,"GFP, % of control":74.7,"viability (ATP), % of control":62.9}
{"Target gene":"Ccr10 (GeneID 12777)","reagent no.":2,"GFP, % of control":84.4,"viability (ATP), % of control":69.9}

More records:
With knock-down of Dock5 (GeneID 68813) #1, the record shows GFP, % of control 49.2; viability (ATP), % of control 50.8.
Against Dock5 (GeneID 68813) #2, the entry reads GFP, % of control 78.6; viability (ATP), % of control 97.4.
After knock-down of Dock5 (GeneID 68813) #3 the results were GFP, % of control 84.6; viability (ATP), % of control 59.
Adss2 (GeneID 11566) #1 scored GFP, % of control 81.3; viability (ATP), % of control 89.8.
For Adss2 (GeneID 11566) #2, the entry reads GFP, % of control 109; viability (ATP), % of control 109.
For Adss2 (GeneID 11566) #3, the values are GFP, % of control 107; viability (ATP), % of control 101.
After knock-down of Glp2r (GeneID 93896) #1, the screen gave GFP, % of control 58.9; viability (ATP), % of control 68.8.
Glp2r (GeneID 93896) #2 gave GFP, % of control 80.2; viability (ATP), % of control 77.7.
After knock-down of Sds (GeneID 231691) #1, the record shows GFP, % of control 74.5; viability (ATP), % of control 89.6.
Sds (GeneID 231691) #2 scored GFP, % of control 81.2; viability (ATP), % of control 88.6.
Against Cxxc4 (GeneID 319478) #1, the values are GFP, % of control 71.6; viability (ATP), % of control 76.1.
Silencing of Cxxc4 (GeneID 319478) #2 came out at: GFP, % of control 75.2; viability (ATP), % of control 84.
With knock-down of Cxxc4 (GeneID 319478) #3, the screen gave GFP, % of control 53.7; viability (ATP), % of control 59.4.
Depletion of Rcan2 (GeneID 53901) #1 gave: GFP, % of control 70; viability (ATP), % of control 54.
Rcan2 (GeneID 53901) #2 scored GFP, % of control 81.8; viability (ATP), % of control 71.2.
After knock-down of Rnase1 (GeneID 19752) #1, the record shows GFP, % of control 67.4; viability (ATP), % of control 124.
Knock-down of Rnase1 (GeneID 19752) #2 gave: GFP, % of control 19.6; viability (ATP), % of control 34.4.
After knock-down of Rnase1 (GeneID 19752) #3, the screen gave GFP, % of control 97.3; viability (ATP), % of control 58.3.
